Experimental data from PubChem BioAssay AID504834 (National Center for Advancing Translational Sciences (NCATS), 2011).
In all, about 320,000 compounds went through this assay and about 22,000 (6.9%) were called active. Inconclusive results, whose numbers are uncertain, are shown with a selection of clear calls. The call rests on the fitted dose curve; in most records, active means well fitted inhibition curve with a large enough effect; inconclusive means small, poorly fitted or top-dose-only effect, or another doubt; inactive means no such curve, though single readings can be large or run the other way. Where the call is inconclusive, the potency comes from a doubtful curve fit.

experiment: Primary qHTS for delayed death inhibitors of the malarial parasite plastid, 96 hour incubation; details: P. falciparum luciferase reporter growth; series mostly up to 28.7 µM; activity change, negative = inhibition: at the top concentration
Method in brief: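 Readout is luminescence from an integrated firefly luciferase in P. falciparum. Red cells, 2% hematocrit and 0.05% parasitemia final, were cultured with compound through two parasite generations (96 hours) at 37 C, 5% CO2.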
On the % scale 0 is the no-effect control and ±100 the full control effect; potency means the concentration at half of the fitted maximal effect.

Compound	Potency	activity change, negative = inhibition
CCCc1nn2c(=O)cc(CSCC(=O)Nc3nnc(CC)s3)nc2s1	active: 10.4 µM	
CCc1ccc(C(=O)N2CCN(c3ccc(F)cc3)CC2)s1	inconclusive: 9.28 µM [inhibitor, partial curve, poor fit]	
CN(C)Cc1c(O)ccc2c(=O)c(-c3ccccc3Cl)c(C(F)(F)F)oc12	inconclusive: 11.7 µM [inhibitor, partial curve, poor fit]	
COc1ccc(C2/C=C\CN(C(=O)Nc3ccccc3)CC(=O)N2Cc2ccc(F)cc2)cc1 (stereo not drawn)		inactive: 22.4%
Cc1ccc(N2C(=O)N(CC(=O)NCc3ccc(Cl)cc3)C(=O)C2C)cc1 (stereo not drawn)		inactive: 19.4%
O=C(CN1CCN(S(=O)(=O)c2ccc(F)cc2)CC1)Nc1ccnn1C1CCCC1		inactive: 1.39%
O=C1CSC(c2ccc(F)cc2)N1c1ccccc1F (stereo not drawn)	inconclusive: 10.4 µM [inhibitor, single point]	
CNC(=O)O/N=C(\N)Cc1csc2ccc(Cl)cc12	inconclusive: 10.4 µM [inhibitor, single point]	
S=C(NCc1ccncc1)Nc1ccc(Br)cc1Cl		inactive: -7.45%
COc1ccc(CCNCC(=O)Nc2ccc(C)c(S(=O)(=O)N(C)C)c2)cc1OC	inconclusive: 9.28 µM [inhibitor, partial curve]	
Cc1cc(N2C(=O)C(O)=C(C(=O)c3cc4ccccc4o3)C2c2ccc(OC(C)C)cc2)no1 (stereo not drawn)	inconclusive: 7.38 µM [inhibitor, partial curve]	
CC1CCN(c2ncnc3c2cnn3Cc2ccc(Cl)cc2)CC1		inactive: 7.44% [at 5.75 µM]
COc1ccccc1C1CCN(Cc2ccc(Cl)cc2Cl)CC1	inconclusive: 18.5 µM [inhibitor, single point]	
COc1ccc(COc2cccc3ccc(C)nc23)cc1F		inactive: -7.72%
Cc1cc(C(=O)OCC(=O)N2CCN(c3ccccc3)CC2)c2ccccc2n1	inconclusive: 18.5 µM [inhibitor, single point]	
CCOC(=O)c1c(NC(=O)CCS(=O)(=O)c2ccccc2)sc2c1CCN(C(C)C)C2	inconclusive: 6.57 µM [inhibitor, partial curve, poor fit]	
CC(=O)COC(=O)c1cc(-c2ccc(C)cc2)nc2ccccc12	inconclusive: 0.928 µM [inhibitor, partial curve, poor fit]	
CCOC(=O)C1(Cc2ccc(Cl)cc2)CCN(C(=O)c2sc(C)nc2C)CC1	inconclusive: 10.4 µM [inhibitor, single point]	
O=C(CSc1n[nH]c(-c2ccncc2)n1)c1ccccc1		inactive: -23.8%
CC1=NN(C(=O)c2ccccc2-n2cccc2)C(O)(C(F)(F)F)C1 (stereo not drawn)		inactive: -14.9%
NC(=S)N/N=C\c1ccccc1OCc1ccccc1	inconclusive: 11.7 µM [inhibitor, single point]	
Cc1ccc(C(=O)N/C(=C\c2ccc(F)cc2)C(=O)NCc2ccncc2)cc1	inconclusive: 13.1 µM [inhibitor, single point]	
CC(=O)Nc1ccc(S(=O)(=O)NCC2CCC(C(=O)NCCCN(C)Cc3ccccc3)CC2)cc1 (stereo not drawn)	inconclusive: 18.5 µM [inhibitor, single point]	

Compound	Potency	activity change, negative = inhibition
Cc1cc(C)nc(SCC(=O)Oc2ccc3oc(=O)cc(C)c3c2)n1		inactive: 37.6%
S=C(Nc1ccccc1)N1CCCCCCC1	inconclusive: 10.4 µM [inhibitor, single point]	
CC(C)c1ccc(/C=C/C(=O)O)cc1		inactive: 2.07%
NC(=S)N/N=C/c1ccc(-n2nncc2-c2ccc(Cl)cc2)cc1	inconclusive: 0.117 µM [inhibitor, full curve, poor fit]	
COc1cc(C(=O)N(c2ccc(C)c(C)c2)C2C=CS(=O)(=O)C2)cc(OC)c1OC (stereo not drawn)		inactive: 30.5% [at 1.15 µM]
O=C(O)c1ccc(N/N=C/c2cc3ccccc3nc2Cl)cc1		inactive: 207%
CC(C)CN1C(=S)SC(C)(C)C1n1oc(=O)n(-c2ccc(Cl)cc2)c1=O (stereo not drawn)	inconclusive: 18.5 µM [inhibitor, single point]	
COc1ccc(-n2c(SCC(=O)Nc3cccc(S(N)(=O)=O)c3)nc3ccccc3c2=O)cc1OC	inconclusive: 10.4 µM [inhibitor, partial curve, poor fit]	
COc1ccc(OCC(=O)N/N=C/c2ccc(N(C)C)cc2)cc1	inconclusive: 18.5 µM [inhibitor, single point]	
COC(=O)c1ccc(Oc2coc3cc(OCc4ccc([N+](=O)[O-])cc4)ccc3c2=O)cc1		inactive: 63.7%
OC(COc1ccccc1Cl)CN1CCN(CC(O)COc2ccccc2Cl)CC1 (stereo not drawn)		inactive: 117%
O=C(COC(=O)CCc1ccc(S(=O)(=O)N2CCOCC2)cc1)Nc1ccc(Cl)cn1	inconclusive: 11.7 µM [inhibitor, partial curve, poor fit]	
COc1cccc(CN2CCN(C(=O)COc3ccc4ccccc4c3)CC2)c1	inconclusive: 18.5 µM [inhibitor, single point]	
Cc1cc(C)cc(OCCCCn2cncn2)c1		inactive: 35.9%
CN(Cc1nc2ccc(Cl)cc2[nH]1)Cc1nc(-c2cnccn2)no1	inconclusive: 8.28 µM [inhibitor, partial curve]	
CCc1ccc(NC(=O)Nc2ccc3c(c2)CCC3)cc1		inactive: 21.6%
NS(=O)(=O)c1cccc(NC(=O)c2cc(-c3cccs3)nc3ccccc23)c1	inconclusive: 8.28 µM [inhibitor, single point]	
O=C(CN1C(=O)/C(=C/c2ccccc2F)Sc2ccccc21)N1CCN(c2ccccn2)CC1	inconclusive: 18.5 µM [inhibitor, partial curve, poor fit]	
CCOC(=O)C1=C(C)N=c2s/c(=C/c3cccc([N+](=O)[O-])c3O)c(=O)n2C1c1cc(OC)c(OC)c(OC)c1 (stereo not drawn)	inconclusive: 1.04 µM [inhibitor, full curve]	
O=C(c1ccccc1)n1nnc2ccccc21		inactive: 26.1%
O=C(NCC1CCCO1)c1ccccc1NS(=O)(=O)c1cccs1 (stereo not drawn)	inconclusive: 18.5 µM [inhibitor, single point]	
CC(CC(=O)N1CCN(c2cccc(Cl)c2)CC1)S(=O)(=O)c1ccc2c(c1)NC(=O)CO2 (stereo not drawn)	inconclusive: 1.47 µM [inhibitor, full curve, poor fit]	
COc1ccc(S(=O)(=O)Nc2cc(C(=O)NCCCN3CCOCC3)ccc2N2CCOCC2)cc1	inconclusive: 14.7 µM [inhibitor, single point]	

Fetched one by one from the list above:
Compound	Potency	activity change, negative = inhibition
COc1ccc(OCC(=O)N/N=C/c2ccc(N(C)C)cc2)cc1	inconclusive: 18.5 µM [inhibitor, single point]	
Cc1cc(C)cc(OCCCCn2cncn2)c1		inactive: 35.9%
O=C(NCC1CCCO1)c1ccccc1NS(=O)(=O)c1cccs1 (stereo not drawn)	inconclusive: 18.5 µM [inhibitor, single point]	

Later entries.

Compound	Potency	activity change, negative = inhibition
Cc1ccccc1Cc1c(C)nc2nc(SCC(=O)NCc3ccco3)nn2c1C		inactive: 7.23%
Cc1ccc(S(=O)(=O)N2CN(CC3CCCO3)c3nc4ccccc4nc32)cc1 (stereo not drawn)	inconclusive: 16.5 µM [inhibitor, single point]	
Cc1[nH]n(C)c(=O)c1C(=O)c1c(-c2c(Cl)cccc2Cl)noc1C	inconclusive: 0.0131 µM [inhibitor, full curve, poor fit]	
CC1=C(C(=O)Nc2ccccc2)C(c2coc3ccccc3c2=O)C2=C(CCCC2=O)N1 (stereo not drawn)		inactive: -9.59%
C[N+](C)(CCOc1ccccc1)Cc1ccccc1 (tested in a mixture with another compound)		inactive: 41.1%
COc1cccc(-c2cccc(NC(=O)C3CCN(CC4CCOC4)CC3)c2)c1 (stereo not drawn)	inconclusive: 18.5 µM [inhibitor, single point]	
CCN1CCN(S(=O)(=O)c2ccc(Cl)c(C(=O)Nc3ccccc3N3CCCCC3)c2)CC1	inconclusive: 11.7 µM [inhibitor, single point]	
CCOC(=O)C1=C(CC)Nc2ccccc2N=C1NC(=O)c1cc(S(=O)(=O)N(C)C)ccc1Cl	inconclusive: 18.5 µM [inhibitor, single point]	
COc1ccccc1CNC(=O)C/C(C)=N/NC(=O)COc1ccc(C)cc1Br	inconclusive: 5.86 µM [inhibitor, partial curve]	
CC(C)COc1ccc(CSCCNC(=S)Nc2ccccc2)cc1	inconclusive: 9.28 µM [inhibitor, single point]	
C=CCn1c(SCC(=O)N2CCCC2)nc2scc(-c3cccs3)c2c1=O	inconclusive: 0.0329 µM [inhibitor, full curve, poor fit]	
COC(=O)c1c(NC(=O)C2CCCCC2)sc2c1CC(C)(C)NC2(C)C		inactive: 86.2%
CCCN1C(=O)COc2ccc(-c3n[nH]c(=O)c4ccccc34)cc21	inconclusive: 20.8 µM [inhibitor, single point]	
CN(C)S(=O)(=O)c1ccc(C(=O)Oc2cc(=O)[nH]c3ccccc23)cc1	active: 8.28 µM	
O=C(c1ccc(Cl)cc1)N1CCOc2ccccc21		inactive: 0%
COc1cccc(CNC(=O)CCC2CCCN(C(=O)C3CCOCC3)C2)c1 (stereo not drawn)	inconclusive: 18.5 µM [inhibitor, single point]	
CCOC(=O)c1c(C)nc2sc3c(=O)n(-c4ccc(OC)cc4)nnc3c2c1-c1ccc(OC)cc1	inconclusive: 13.1 µM [inhibitor, single point]	
COc1ccc(NC(=O)CSc2nnc(C)n2C2CC2)cc1S(=O)(=O)N1CCOCC1	inconclusive: 10.4 µM [inhibitor, single point]	
COC(=O)[C@@H]1C(c2ccccc2)(c2ccccc2)[C@@]1(C)C(=O)OC	inconclusive: 5.22 µM [inhibitor, partial curve, poor fit]	
Cc1ccc(S(=O)(=O)N2CCN(C(=O)c3ccco3)CC2)c(C)c1	active: 10.4 µM	
Cc1cc2c(cc1S(=O)(=O)CCC(=O)NCCc1ccccc1)OCC(=O)N2	active: 8.28 µM	
Cc1ccc2[nH]c(C)c(/C=N/Nc3nc4ccccc4s3)c2c1	inconclusive: 18.5 µM [inhibitor, single point]	
